Measurements taken from US20230144855A1, “METHODS AND COMPOSITIONS FOR INDUCING FETAL HEMOGLOBIN” (Flagship Pioneering Innovations VI, LLC, priority 2021, published 2023).
At least one structure is not confirmed: it was looked up by name or label, or the drawing left a doubt.

Legend:
mPB CD34+ cells = experiment: scRNA-seq of CD34+ cells treated with HbF inducers (trajectories, gene signatures); assay type: cell-based, human; details: scRNA-seq of HU and HU+Dex conditions
Procedure: To understand the mechanism/cell behavior driving fetal hemoglobin induction, a number of known HbF inducers were evaluated and their signature was elucidated by scRNA-seq. In brief, mPB CD34+ cells were thawed, cultured and treated with selected HbF inducers (Table 11) as described in Example 2 and subjected to single cell gene expression profiling (GEP) at 5 time points capturing the induction of erythroid differentiation from a hematopoietic stem cell progenitor. For sequencing, 10,000 cells (1000 cells/perturbation) were loaded into a single channel of a Chromium Next GEM Chip G and partitioned into droplets with gel beads using a Chromium controller per time point. After emulsion droplets were formed and collected, reverse transcription reactions were incubated at 53° C. for 45 min. […]
Based on the unique/novel cell state (CD34+/CD41^Low+/CD235a+) induced by HU treatment of human hematopoietic stem cell progenitors Applicant postulated that this cell state was reminiscent/analogous to a stress erythropoiesis cell state previously defined in mice but not well characterized in human. […] To evaluate whether HU was inducing a stress erythropoiesis cells state and whether this cell state was responsive to glucocorticoids, the effect of dexamethasone (Dex) was evaluated in the context of HU treatment. […]

[1] = system: CD34+ hematopoietic stem and progenitor cells (HSPCs); experiment: Flow cytometry assay of percentage of HbF expressing cells (F-cells) after in vitro erythroid differentiation; assay type: cell-based, human; details: combination with HU
Procedure: Briefly, mobilized peripheral blood (mPB), or bone marrow (BM) derived CD34+ hematopoietic stem and progenitor cells (HSPCs) were thawed and cultured in Hematopoietic stem cell expansion media (Table 7) from Day −4 to Day 0 following by 3-stage in vitro erythroid differentiation (Table 8). Specifically, cells were cultured in erythroid expansion media (phase 1) from Day 0-6, followed by differentiation media (phase 2) between Day 7-10, and culminating with incubation in erythroid maturation media (phase 3) from Day 10-18. Perturbagens reconstituted in DMSO (or appropriate solvent) were added starting at day −2 (corresponding to a stage of CD34+ hematopoietic progenitors). […] As part of the analysis, the expansion (fold growth), viability, and erythroid maturation was measured throughout the course of differentiation. Early erythroid induction was determined by flow cytometry using a six-antibody panel (CD34, CD38, CD36, CD71, CD41, CD235a) (Table 9). Similarly, late erythroid maturation was determined by flow cytometry using a four-antibody panel (Table 10) (CD71, CD235a, CD233, CD49d) tracking increased CD233 expression, with a concomitant loss of CD49d expression, and a shift in CD71^Hi to CD71^low erythroid population (CD235a+) over 18 days (FIG. 2). […]

C[C@@H]1C[C@H]2[C@@H]3CCC4=CC(=O)C=C[C@]4(C)[C@@]3(F)[C@@H](O)C[C@]2(C)[C@@]1(O)C(=O)CO [Dex, dexamethasone]
Expression of C-Kit receptor (mPB CD34+ cells): increased expression of C-Kit receptor
F-cell data, glucocorticoid agonist combined with HU (absolute change, fold change) [1]: synergy with HU
